The list does not hold the whole screen: it gathers tests that were run many times, whatever their T/C, doses with no T/C, and many T/C values between a quarter and a half above the control. Other doses and runs of a compound stand elsewhere. T/C is the treated group as % of the vehicle group. Some entries give survivors of the animals treated and no T/C: the source holds a T/C of zero for them, seemingly a mark for toxic or unscored doses. Some doses without a T/C left all or most animals alive at the check, yet need not have been tolerated: the source hardly ever lists a survival T/C far under the control, and the zero likely stands for such cases as well. Survivors were counted at the toxicity check, usually on the fifth day, unless a day is given; later deaths do not show. Schedules are NCI's codes, taken here to give the interval after Q, in days (D) or hours (H), and the number of doses after X. Some entries were tested several times; the values are given in rising order. Some schedule codes hold Z or #, which are not explained here. For survival time, the PubChem record calls one and a half times the control and up active, and a quarter to a half above the control has no call in these data; cut-offs in other NCI protocols can differ.
Tested on: L1210 leukemia ip in BDF1 mice, survival T/C
Assay: NCI In Vivo Anticancer Drug Screen. Data for tumor model L1210 Leukemia (intraperitoneal) in B6D2F1 (BDF1) mice
Settings: T/C endpoint: mean survival time, higher T/C = longer survival
[1] = dose: 100.0 mg/kg/injection, schedule: Q01DX009 (ip), vehicle: saline with Tween-80
[2] = dose: 100.0 mg/kg/injection, schedule: Q01DX009 (ip), vehicle: Klucel (hydroxypropylcellulose) (HPC)
[3] = dose: 200.0 mg/kg/injection, schedule: Q01DX009 (ip), vehicle: Klucel (hydroxypropylcellulose) (HPC)
[4] = dose: 400.0 mg/kg/injection, schedule: Q01DX009 (ip), vehicle: Klucel (hydroxypropylcellulose) (HPC)
[5] = dose: 200.0 mg/kg/injection, schedule: Q04DX003 (ip), vehicle: saline with Tween-80
[6] = dose: 400.0 mg/kg/injection, schedule: Q04DX003 (ip), vehicle: saline with Tween-80
[7] = dose: 50.0 mg/kg/injection, schedule: Q01DX009 (ip), vehicle: Klucel (hydroxypropylcellulose) (HPC)
[8] = dose: 100.0 mg/kg/injection, schedule: Q04DX003 (ip), vehicle: Klucel (hydroxypropylcellulose) (HPC)
[9] = dose: 200.0 mg/kg/injection, schedule: Q04DX003 (ip), vehicle: Klucel (hydroxypropylcellulose) (HPC)
[10] = dose: 400.0 mg/kg/injection, schedule: Q04DX003 (ip), vehicle: Klucel (hydroxypropylcellulose) (HPC)
[11] = dose: 400.0 mg/kg/injection, schedule: Q01DX001 (ip), vehicle: saline
[12] = dose: 300.0 mg/kg/injection, schedule: Q01DX001 (ip), vehicle: saline
[13] = dose: 400.0 mg/kg/injection, schedule: Q01DX009 (ip), vehicle: saline with Tween-80
[14] = dose: 50.0 mg/kg/injection, schedule: Q01DX001 (ip), vehicle: carboxymethylcellulose (CMC)
[15] = dose: 100.0 mg/kg/injection, schedule: Q01DX001 (ip), vehicle: carboxymethylcellulose (CMC)
[16] = dose: 200.0 mg/kg/injection, schedule: Q01DX001 (ip), vehicle: carboxymethylcellulose (CMC)
[17] = dose: 400.0 mg/kg/injection, schedule: Q01DX001 (ip), vehicle: carboxymethylcellulose (CMC)
[18] = dose: 200.0 mg/kg/injection, schedule: Q04DX003 (ip), vehicle: saline
[19] = dose: 400.0 mg/kg/injection, schedule: Q04DX003 (ip), vehicle: saline

COC12CCCC1S(=O)(=O)C2 (configuration not stated)
survivor count [1]: 3 of 6

C=C1C2CCC3C4(C)CC(OC5OC(CO)C(OS(=O)(=O)O)C(OS(=O)(=O)O)C5OC(=O)CCCC)CC(C(=O)O)(C(=O)O)C4CCC3(C2)C1O (configuration not stated)
survivor count (dose: 12.5 mg/kg/injection, schedule: Q01DX009 (ip), vehicle: saline): 0 of 6
survivor count (dose: 12.5 mg/kg/injection, schedule: Q04DX002 (ip), vehicle: saline): 0 of 3 and 1 of 3
survivor count (dose: 25.0 mg/kg/injection, schedule: Q01DX009 (ip), vehicle: saline): 0 of 6
survivor count (dose: 25.0 mg/kg/injection, schedule: Q04DX002 (ip), vehicle: saline): 0 of 3
survivor count (dose: 50.0 mg/kg/injection, schedule: Q01DX009 (ip), vehicle: saline): 0 of 6
survivor count (dose: 50.0 mg/kg/injection, schedule: Q04DX002 (ip), vehicle: saline): 0 of 3
survivor count [2]: 0 of 6
survivor count [3]: 0 of 6
survivor count [4]: 0 of 6

Nc1ccc2ccccc2c1N=Nc1ccc(C(O)C(N)CO)cc1 (configuration not stated)
survivor count (dose: 100.0 mg/kg/injection, schedule: Q04DX003 (ip), vehicle: saline with Tween-80): 1 of 6
survivor count [5]: 1 of 6
survivor count [6]: 0 of 6

CC[n+]1ccc(/C=C\c2c(Cl)cccc2Cl)cc1
survivor count [7]: 0 of 6
survivor count [2]: 0 of 6
survivor count [3]: 0 of 6
survivor count [4]: 0 of 6

C1CSCSC1
survivor count [7]: 0 of 6
survivor count [8]: 0 of 6
survivor count [9]: 0 of 6
survivor count [10]: 0 of 6

O=C(CCCC(=O)NNC(=O)Nc1cccc2ccccc12)NNC(=O)Nc1cccc2ccccc12
survivor count [11]: 3 of 4

F[Si](F)(c1ccccc1)c1ccccc1
survivor count [12]: 4 of 6

CCN(CC)CCCC(C)n1nnc2cc(Cl)ccc21 (configuration not stated)
survivor count [11]: 1 of 4

O=C(Nc1ccc(C2=NCC(O)CN2)cc1)c1ccc(C(=O)Nc2ccc(C3=NCC(O)CN3)cc2)c(Cl)c1 (configuration not stated)
survivor count (dose: 1.25 mg/kg/injection, schedule: Q01DX015 (ip), vehicle: water): 0 of 6
survivor count (dose: 2.5 mg/kg/injection, schedule: Q01DX015 (ip), vehicle: water): 0 of 6
survivor count (dose: 3.75 mg/kg/injection, schedule: Q01DX015 (ip), vehicle: water): 0 of 6
survivor count (dose: 5.0 mg/kg/injection, schedule: Q01DX015 (ip), vehicle: water): 0 of 6
survivor count (dose: 10.0 mg/kg/injection, schedule: Q01DX Z (ip), vehicle: water): 0 of 6
survivor count (dose: 20.0 mg/kg/injection, schedule: Q01DX Z (ip), vehicle: water): 0 of 6
survivor count (dose: 30.0 mg/kg/injection, schedule: Q01DX Z (ip), vehicle: water): 0 of 6

CC(C)CC(B1OCCO1)(C1CCCCC1)C1CCCCC1
survivor count [13]: 1 of 6

NNC(=O)c1ccc(-c2ccc[nH]2)[nH]1
survivor count [12]: 1 of 6

O=[N+]([O-])c1cccc2cccnc12
T/C (dose: 200.0 mg/kg/injection, schedule: Q01DX001 (ip), vehicle: saline): 125 % of control
survivor count (dose: 200.0 mg/kg/injection, schedule: Q01DX009 (ip), vehicle: saline with Tween-80): 3 of 6
survivor count [11]: 2 of 4

Clc1cc[n+](-c2ccncc2)cc1
survivor count (dose: 400.0 mg/kg/injection, schedule: Q01DX009 (ip), vehicle: saline): 6 of 6

CCCCCCN(CCCCCC)CC(=O)NCCCN1CCN(CCCNC(=O)CN(CCCCCC)CCCCCC)CC1
T/C [14]: 127 % of control
survivor count (dose: 75.0 mg/kg/injection, schedule: Q01DX001 (ip), vehicle: carboxymethylcellulose (CMC)): 1 of 6 and 2 of 4
survivor count [15]: 0 of 4
survivor count [16]: 0 of 4
survivor count [17]: 0 of 4

N#Cc1ccc(C(=O)C=C(C(F)(F)F)C(F)(F)F)cc1
survivor count (dose: 25.0 mg/kg/injection, schedule: Q01DX009 (ip), vehicle: other): 1 of 6
survivor count (dose: 100.0 mg/kg/injection, schedule: Q01DX009 (ip), vehicle: other): 1 of 6
survivor count (dose: 200.0 mg/kg/injection, schedule: Q01DX009 (ip), vehicle: other): 0 of 6
survivor count (dose: 400.0 mg/kg/injection, schedule: Q01DX009 (ip), vehicle: other): 0 of 6

CN(N=O)C(=O)NCCSc1ncnc2nc[nH]c12
T/C (dose: 100.0 mg/kg/injection, schedule: Q01DX Z (ip), vehicle: carboxymethylcellulose (CMC)): 140 % of control

O=c1[nH]c(Cl)nc2c(Cl)c(C(Cl)(Cl)Cl)nn12
survivor count [13]: 4 of 6

CC1(C)CC(N=Cc2ccccc2O)CC(C)(C)N1O.CC1(C)CC(N=Cc2ccccc2O)CC(C)(C)N1O.[Ni]
survivor count [5]: 0 of 4
survivor count [6]: 1 of 4

C=CC[Si](C)(C)N1CC1
survivor count (dose: 25.0 mg/kg/injection, schedule: Q01DX001 (ip), vehicle: carboxymethylcellulose (CMC)): 2 of 4
survivor count [14]: 2 of 4
survivor count [15]: 0 of 4
survivor count [16]: 0 of 4
survivor count [17]: 0 of 4

COc1ccc(NC(=O)Nc2ccc(C3=NCCCN3)cc2)cc1NC(=O)Nc1ccc(C2=NCCCN2)cc1
T/C (dose: 125.0 mg/kg/injection, schedule: Q01DX Z (ip), vehicle: carboxymethylcellulose (CMC)): 142 % of control
survivor count (dose: 500.0 mg/kg/injection, schedule: Q01DX Z (ip), vehicle: carboxymethylcellulose (CMC)): 0 of 6

C=C/C(C)=C/[C@H](C)C(=O)C[C@H](O)CC1CC(=O)NC(=O)C1
survivor count [3]: 2 of 6
survivor count [4]: 0 of 6

CCCCCCCC1N(C)CCCN1C
survivor count [1]: 3 of 6
survivor count [5]: 0 of 6
survivor count [6]: 0 of 6

O=C(c1ccccc1)C(Cl)C(=O)c1ccccc1
survivor count [9]: 3 of 6
survivor count [10]: 1 of 6

CCCCCCP(=O)(CCCC)CCCC
survivor count (dose: 200.0 mg/kg/injection, schedule: Q04DX002 (ip), vehicle: Klucel (hydroxypropylcellulose) (HPC)): 1 of 3
survivor count (dose: 400.0 mg/kg/injection, schedule: Q04DX002 (ip), vehicle: Klucel (hydroxypropylcellulose) (HPC)): 0 of 3

CCCCCCCc1cc2ccccc2c2c(N)nc(N)nc12
survivor count [9]: 0 of 6
survivor count (dose: 400.0 mg/kg/injection, schedule: Q01DX001 (ip), vehicle: Klucel (hydroxypropylcellulose) (HPC)): 1 of 6
survivor count [10]: 0 of 6

CCC1=C(c2ccc(OC)cc2)CCC(C(=O)O)C1C (configuration not stated)
survivor count (dose: 1600.0 mg/kg/injection, schedule: Q01DX Z (ip), vehicle: saline): 3 of 6

CCCCCCCCCCCCCCCCCc1cc(=O)n(-c2ccc(NC(=O)CCC(=O)OC)cc2)n1C
survivor count (dose: 25.0 mg/kg/injection, schedule: Q04DX003 (ip), vehicle: Klucel (hydroxypropylcellulose) (HPC)): 6 of 6
survivor count [8]: 2 of 6
survivor count [9]: 0 of 6
survivor count [10]: 0 of 6

CC1C[N-]CC(C)C1.[CH-]=C(C)C.[Cl][Pt+2][Cl] (configuration not stated)
survivor count [18]: 1 of 6
survivor count [19]: 0 of 6

CCOC(=O)c1cc(N)c[nH]1
survivor count [19]: 6 of 6

NNc1ccccc1Br
survivor count [19]: 0 of 6

CS(=O)(=O)Oc1cc(=O)oc2ccccc12
survivor count [3]: 1 of 3

CCCN(CCC)C(=O)C(=O)OCC
survivor count (dose: 100.0 mg/kg/injection, schedule: Q04DX003 (ip), vehicle: saline): 2 of 6
survivor count [18]: 2 of 6
survivor count [19]: 0 of 6

— PubChem BioAssay AID248 (DTP/NCI, 2004)
